Results are given in words; binding and its absence hold for the method and conditions named. Binding calls can cover weak binding; strength is not graded here. Where a sequence is shown, tags or fusion partners need not be part of it. For part of these data: In cells and extracts the contact can be indirect.
Experiments:
[1] = target: SWINGER (SWN) ΔSET, yeast two-hybrid fusion (Arabidopsis thaliana); assay: two-hybrid; GAL4 yeast two-hybrid in S. cerevisiae AH109; growth on SD-L-W-H in serial dilutions, 3 to 4 days at 28 °C; empty bait and prey vectors as negative controls
[2] = target: PWO1, yeast two-hybrid fusion (Arabidopsis thaliana); assay: as above
[3] = target: SWINGER (SWN) ΔSET, fluorescent-protein fusion expressed in N. benthamiana (Arabidopsis thaliana); assay: co-IP; extracts of N. benthamiana leaves transiently co-expressing GFP- and mCherry-tagged proteins; IP with anti-mCherry and protein A agarose, 4 h at 4 °C, 150 mM NaCl, 1% Triton, Tris-HCl pH 8; blot with anti-GFP

binding [1]	binding [2]	binding [3]	Binder
binds	binds	–	UBP5, yeast two-hybrid fusion (enzyme, UniProt O22207 1-924) MAEVSMGSSSSSTDLSPEEERVFIRDIAIAAEANSKEGDTFYLITQRWWQEWIEYVNQDQPCNTNDGSSLSEHCDSPGSSTLKKPSRIDNSDLIYDSSLEDPSNTSEIIETLQEGRDYVLLPQEVWNQLRSWYGGGPTLARRVISSGLSQTELAVEVYPLRLQLLLMPKSDHSAIRISKKETIRELHRRACEIFDLDSEHVRIWDYYGHQKYSLMNDLDKTLDDANLQMDQDILVEVLDINGTLSSAHIQSAQENGLVDGDSTSILIEPSKSSLAAAGGFSSSRNAFRTGSVEVSQSFDNTYSSTGVTTRGSTAGLTGLLNLGNTCFMNSAIQCLVHTPEFASYFQEDYHQEINWQNPLGMVGELALAFGDLLRKLWAPGRTPIAPRPFKAKLARFAPQFSGYNQHDSQELLAFLLDGLHEDLNRVKHKPYINSRDADGRPDEEVADEFWKNHIARNDSIIVDVCQGQYKSTLVCPICNKVSVTFDPFMYLSLPLQFNTTRAITVTVFSCDKTALPSTITVNVSKQGRCRDLIQALTNACSLKQSEELKLAEIRNNFIHRLFEDPLIPLSSIKDDDHLAAYKLSKSSENTTLLRLVLRRRDQKAGERESTVQLKPCGTPLLSSASCGDALTKGKIHCLVQNMLSPFRREESVGKKGNSDSSIPERRSARFNNTEEEDKVGGLKKAKKSNSSDLGASKLSLQLIDEDNKTINLPDNEAEAMKLPSSATVTIYLDWTPELSGMYDITCLESLPEVLKYGPTTKKARSEPLSLYACLEAFLREEPLVPDEMWFCPQCNERRQASKKLDLWRLPEVLVIHLKRFSYSRSMKHKLETFVNFPIHDLDLTKYVANKNLSQPQLYELYALTNHYGGMGSGHYTAHIKLLDDSRWYNFDDSHISHINEDDVKSGAAYVLFYRRKSDAGGKMT
–	–	binds	UBIQUITIN SPECIFIC PROTEASE 5 (UBP5), fluorescent-protein fusion expressed in N. benthamiana (enzyme, UniProt O22207 1-924) MAEVSMGSSSSSTDLSPEEERVFIRDIAIAAEANSKEGDTFYLITQRWWQEWIEYVNQDQPCNTNDGSSLSEHCDSPGSSTLKKPSRIDNSDLIYDSSLEDPSNTSEIIETLQEGRDYVLLPQEVWNQLRSWYGGGPTLARRVISSGLSQTELAVEVYPLRLQLLLMPKSDHSAIRISKKETIRELHRRACEIFDLDSEHVRIWDYYGHQKYSLMNDLDKTLDDANLQMDQDILVEVLDINGTLSSAHIQSAQENGLVDGDSTSILIEPSKSSLAAAGGFSSSRNAFRTGSVEVSQSFDNTYSSTGVTTRGSTAGLTGLLNLGNTCFMNSAIQCLVHTPEFASYFQEDYHQEINWQNPLGMVGELALAFGDLLRKLWAPGRTPIAPRPFKAKLARFAPQFSGYNQHDSQELLAFLLDGLHEDLNRVKHKPYINSRDADGRPDEEVADEFWKNHIARNDSIIVDVCQGQYKSTLVCPICNKVSVTFDPFMYLSLPLQFNTTRAITVTVFSCDKTALPSTITVNVSKQGRCRDLIQALTNACSLKQSEELKLAEIRNNFIHRLFEDPLIPLSSIKDDDHLAAYKLSKSSENTTLLRLVLRRRDQKAGERESTVQLKPCGTPLLSSASCGDALTKGKIHCLVQNMLSPFRREESVGKKGNSDSSIPERRSARFNNTEEEDKVGGLKKAKKSNSSDLGASKLSLQLIDEDNKTINLPDNEAEAMKLPSSATVTIYLDWTPELSGMYDITCLESLPEVLKYGPTTKKARSEPLSLYACLEAFLREEPLVPDEMWFCPQCNERRQASKKLDLWRLPEVLVIHLKRFSYSRSMKHKLETFVNFPIHDLDLTKYVANKNLSQPQLYELYALTNHYGGMGSGHYTAHIKLLDDSRWYNFDDSHISHINEDDVKSGAAYVLFYRRKSDAGGKMT

Source: publication PMC10803359
